According to paper doi:10.1101/051672:
Read-outs that look alike come from different tables or passages of the source. Results are given in words; binding and its absence hold for the method and conditions named. Binding can be weak; no strength is given. Tags and fused reporters may be left off the sequences shown.

Experiments:
Assay in all cases: TIRF microscopy of purified fluorescent protein on microtubules
[1] = molecular target: Microtubules polymerised from S2 tubulin (Drosophila (endogenous in S2 cells))
EB1 (Drosophila) = molecular target: EB1 (Drosophila)
[2] = molecular target: Microtubules polymerised from S2 tubulin (Drosophila (endogenous in S2 cells)); remark: listed apart in the source

Measured: binding

B1: GFP-CLASP^Mast/Orbit (wild-type) (protein, UniProt Q9NBD7 1-1491)
chain: MAYRKPSDLDGFIQQMPKADMRVKVQLAEDLVTFLSDDTNSIVCTDMGFLIDGLMPWLTGSHFKIAQKSLEAFSELIKRLGSDFNAYTATVLPHVIDRLGDSRDTVREKAQLLLRDLMEHRVLPPQALIDKLATSCFKHKNAKVREEFLQTIVNALHEYGTQQLSVRVYIPPVCALLGDPTVNVREAAIQTLVEIYKHVGDRLRPDLRRMDDVPASKLAMLEQKFDQVKQEGLLLPSALKNTNGNGVGLDEADNIGLRERPTRMIKRPLHSAVSSSLRPKPNVNDVTGDAGAVTMESFESSFEVVPQLNIFHAKDMDDIYKQVLVIISDKNADWEKRVDALKKIRALLILSYHTQPQFVAVQLKELSLSFVDILKEELRSQVIREACITIAYMSKTLRNKLDAFCWSILEHLINLIQNSAKVIASASTIALKYIIKYTHAPKLLKIYTDTLNQSKSKDIRSTLCELMVLLFEEWQTKALERNATVLRDTLKKSIGDADCDARRHSRYAYWAFRRHFPELADQIYGTLDIAAQRALEREREGGGGGGTGTGTGTAPETRRTVSRIGRTPGTLQKPTPSMRSISAVDTAAAQRAKVRAQYTLYSRQRKPLGPNNSNQASMTGAAASGSLPRPRLNSNSGGTPATTPGSVTPRPRGRAGVSQSQPGSRSTSPSTKLRDQYGGIGNYYRGATGAIPKKASGIPRSTASSRETSPTRSGGGLMKRSMYSTGAGSRRTPERNNPVRPSAAARLLAQSREAEHTLGVGDDGQPDYVSGDYMRSGGMRMGRKLMGRDESDDIDSEASSVCSERSFDSSYTRGNKSNYSLSGSHTRLDWSTQRAPFDDIETIIQFCASTHWSERKDGLISLTQYLADGKELTQQQLKCVLDMFRKMFMDTHTKVYSLFLDTVTELILVHANELHEWLFILLTRLFNKLGTDLLNSMHSKIWKTLQVVHEYFPTQLQLKELFRIISDSTQTPTTKTRIAILRFLTDLANTYCKSSDFPSDQSQACERTVLKLAQLAADQKSMELRSQARSCLVALYNLNTPQMTLLLADLPKVYQDSARSCIHSHMRRQSQSCNSGANSPSSSPLSSSSPKPLQSPSVGPFASLQSHHHQLSISSTSPRSRQSSVEQELLFSSELDIQHNIQKTSEEIRHCFGGQYQTALAPNGFNGHLQYHDQGQQDSCASLSSNSKTQSSANTTQSNTPESATMRLDNLERERTTQNAKSPTDDAKVITVSINMAENGELILASNLMESEVVRVALTLTKDQPVELLQTSLTNLGICIKGGNCELPNKHFRSIMRMLLNILEAEHTDVVIAGLHVLSKIMRSNKMRHNWMHFLELILLKIIQCYQHSKEALRDIDSMIPRIAPSLPLDLSINIVNPVIATGEFPTNLCAIKILLEVTEHHGSEITDAHLDIVFPNLARSADDTQSMVRKAAVFCIVKLYFVLGEEKVKPKLSVLNPSKVRLLNVYIEKQRNCISGGGSSTKNSSAASSS
binds: all assays above
